# These are yes or no findings as the source states them, for the method shown. In cells and extracts the contact can be indirect. Here binding means that the protein was enriched with, or labelled near, the bait; the list need not be complete. A no says only that the protein was not detected with the bait. Where a sequence is shown, tags or fusion partners need not be part of it.
# T1: uL5c-HA (chloroplast-encoded ribosomal protein Rpl5 with C-terminal triple-HA tag) (Chlamydomonas reinhardtii) (UniProt Q8HTL1)
# T1 sequence: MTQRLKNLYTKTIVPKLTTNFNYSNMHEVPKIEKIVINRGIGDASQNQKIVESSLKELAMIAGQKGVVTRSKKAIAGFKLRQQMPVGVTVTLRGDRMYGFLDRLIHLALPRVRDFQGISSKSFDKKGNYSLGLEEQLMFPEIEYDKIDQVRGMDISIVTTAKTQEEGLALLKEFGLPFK
# Biological target: T1, uL5c-HA (chloroplast-encoded ribosomal protein Rpl5 with C-terminal triple-HA tag) (Chlamydomonas reinhardtii)
# Assay: affinity purification with mass spectrometry
row,Binder,binding
1,"uL23c (chloroplast-encoded Rpl23) (protein, UniProt Q8HTL3 1-95) MLDLVKYPVITQKTYIALFKDRQYTFDVDLRLTKPQIKKVFETLFNVDVISVNTHIPPRQKIRVGLAQGYRPRYKRAIITLKEGQSINYSLKNDN",binds
2,"AtpB (CF1 ATPase subunit) (protein, UniProt P06541 1-481) MSDSIETKNMGRIVQIIGPVLDIVFAKGQVPNIYNALTIRAKNSAGTEMAVTCEVQQLLGDNCVRAVSMNPTEGLMRGMEVVDTGKPLSVPVGKVTLGRIFNVLGEPVDNMGNVKVEETLPIHRTAPAFVDLDTRLSIFETGIKVVDLLAPYRRGGKIGLFGGAGVGKTVLIMELINNIAKAHGGVSVFAGVGERTREGNDLYTEMKESGVIVEKNLSDSKVALVYGQMNEPPGARMRVALTALTMAEYFRDVNKQDVLFFIDNIFRFVQAGAEVSALLGRMPSAVGYQPTLATEMGGLQERITSTKDGSITSIQAVYVPADDLTDPAPATTFAHLDATTVLSRNLAAKGIYPAVDPLESTSTMLQPWILGEKHYDSAQSVKKTLQRYKELQDIIAILGLDELSEEDRLIVARARKIERFLSQPFFVAEVFTGSPGKYVSLAETIEGFGKIFAGELDDLPEQAFYLVGNITEAISKAASLK",no binding

# Reference: publication doi:10.1101/2019.12.12.874503
